Experimental data: patent US20160000750A1, “COMBINATION OF EGCG OR METHYLATED EGCG AND A PDE INHIBITOR” (KYUSHU UNIVERSITY, NATIONAL UNIVERSITY CORPORATION, priority 2010, published 2016)
For at least one compound, name, drawing or mass did not settle the structure.

Assays:
[1] = system: human acute myeloid leukemia cell line, HL60; test: Trypan blue cell viability and viable cell count, HL60; format: cell-based; conditions: vardenafil 5 μM, EGCG 5 μM added after 3 hours, 96 hours
Experimental: A human multiple myeloma cell line, U266, was subcultured in an RPMI 1640 medium (NISSUI PHARMACEUTICAL Co. LTD., Tokyo) supplemented with 10% fetal calf serum (FCS) (BIOLOGICAL INDUSTRIES) at 37° C. under vapor-saturated 5% CO2 conditions. The cells were cultured in the logarithmic growth phase. A human acute myeloid leukemia cell line, HL60, was subcultured in an RPMI 1640 medium supplemented with 10% fetal calf serum (FCS) at 37° C. under vapor-saturated 5% CO2 conditions. The cells were cultured in the logarithmic growth phase. […]
The plate was returned to the incubator immediately after the addition of EGCG, followed by culturing for 96 hours. […] After 10 minutes, the number of the cells was counted with a hemocytometer (Becton, Dickinson and Company). Unstained cells were deemed as viable cells, and the cell viability was determined as a ratio of the number of unstained cells in trypan blue staining to the total number of cells. […]

[2] = system: human multiple myeloma cell line, RPMI8226; test: Trypan blue cell viability and viable cell count, RPMI8226; format: cell-based; conditions: vardenafil 5 μM, EGCG 5 μM, 96 hours
Experimental: Enhancement of the activity of EGCG on multiple myeloma cells by vardenafil was investigated. A human multiple myeloma cell line, RPMI8226, was seeded in a 24-well plate at 5×10^4 cells/mL, and vardenafil was added thereto at a final concentration of 5 μM. After 3 hours, EGCG was added thereto at a final concentration of 5 μM. After 96 hours, cell viability (A) and the number (B) of viable cells were measured by trypan blue staining. The value of a control group of cells not treated with EGCG and vardenafil was defined as 100%. The results are shown in FIG. 8 (n=3, Tukey's test, *: P<0.05, ***: P<0.001).

[3] = system: mouse plasmacytoma cell line, MPC11, transplanted to Balb/c mice; test: Tumor formation of MPC11 transplanted to Balb/c mice; format: in vivo; conditions: MPC11 s.c., EGCG 15 mg/kg i.p., vardenafil 5 mg/kg i.p., once every two days from day 4
Experimental: Furthermore, 5-week old female balb/c mice were preliminarily bred for one week and were then inoculated with a mouse multiple myeloma cell line, MPC11, by subcutaneous injection, in the right back, of […] of a suspension of 5×10^7 cells/mL of the cells in an RPMI medium. After 4 days from the inoculation, EGCG (15 mg/kg i.p.) and vardenafil (5 mg/kg i.p.) were administered once every two days, and the tumor volume was measured with varnier clipers. In the graph, EGCG and VDN indicate single administration of EGCG and vardenafil, respectively, and EGCG/Vardenafil indicates combination administration of EGCG and vardenafil.

With `CCCc1nc(C)c2c(=O)[nH]c(-c3cc(S(=O)(=O)N4CCN(CC)CC4)ccc3OCC)nn12` [vardenafil] the “cell viability (cell-killing activity)” value [1] was “any cytotoxicity was not observed”, the “cell viability (cell-killing activity)” value [2] was “any cytotoxicity was not observed” and the “tumor formation (tumor volume)” value [3] was “any inhibitory action on tumor formation of the mouse plasmacytoma cell line was not observed”.
